The whole screen tested about 340,000 compounds, of which about 170 (0.05%) were called active. Inconclusive means that the source gave no clear call. Such entries were picked first, then a sample of the others. Calls follow the shape of the dose curve; as a rule, active = well fitted inhibition curve with a large enough effect in the signal ratio, with a control signal flat (not every such curve was filed as active); inconclusive = small, poorly fitted or top-dose-only effect, or effect the other way, or a change in a side signal; inactive = flat fitted curve, though single readings scatter; the % refers to the signal ratio. Potencies beside an inconclusive call are fits to weak or partial responses and may not hold up.
Assay: qHTS Assay to Find Inhibitors of Chronic Active B-Cell Receptor Signaling;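 as to activity change, negative = inhibition: plate controls were basal doxycycline-induced cells for no effect and cells given 10 µM MG132 for full effect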
Details: ABC-DLBCL IkBa-CBG/CBR reporter, luminescence ratio (green luciferase fused to IkBa over red control in TMD8 lymphoma cells), 4 h; activity change, negative = inhibition: at 46.1 µM (top of the series)
How it was run: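 Compounds up to 46 uM were incubated four hours with TMD8 cells whose green CBG68 luciferase is fused to IkappaBalpha; red CBR luminescence normalised the signal, and concentration-effect curves were fitted to fusion, red and ratio data.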
Potency is read from the fitted curve at half-maximal effect.

| Compound | activity change, negative = inhibition | Potency |
| --- | --- | --- |
| COc1cc(C2C=C(c3cccs3)Nc3ncnn32)cc(OC)c1OC (configuration not stated) | inconclusive: 11.5% |  |
| Cc1nc2ccccn2c1/C(O)=C1\C(=O)C(=O)N(CCN2CCOCC2)C1c1cccs1 (configuration not stated) | inconclusive: 6.92% |  |
| Cc1csc(NC(=O)CSc2ncnc3ccccc23)n1 | inconclusive: -1.3% |  |
| COC(=O)c1sccc1NC(=O)Nc1ccccc1F |  | inconclusive: 2 µM [falling, full curve, poor fit] |
| O=C(/C=C/c1cccc(Br)c1)N1CCN(c2cccc(C(F)(F)F)c2)CC1 | inconclusive: -2.93% |  |
| FC(F)(F)c1cccc(Cc2noc(CN3CCCC(OCc4ccccn4)C3)n2)c1 (configuration not stated) | inconclusive: -0.263% |  |
| CC[C@@H](C)[C@H](NC(=O)OC(C)(C)C)c1nnc(S(=O)(=O)Cc2cc(C)ccc2C)o1 | inconclusive: 18.7% |  |
| COc1ccc(C(C(=O)NCCC(C)C)N(CCO)C(=O)c2snc(C(N)=O)c2N)cc1 (configuration not stated) | inconclusive: 4.57% |  |
| Nc1c(-c2cccc(Cl)c2)cnn1-c1ccccc1 |  | inconclusive: 22.4 µM [falling, single point] |
| O=C(OCCOc1cccc(Cl)c1)c1cc(S(=O)(=O)N2CCCCC2)ccc1N1CCOCC1 | inconclusive: 4.24% |  |
| COc1cc(OC)c(C(=O)OCC(=O)Nc2ccc(S(=O)(=O)N3CCOCC3)cc2)cc1OC | inactive: -4.27% |  |
| COc1ccccc1-c1cc(C(=O)Nc2ccc(F)cc2F)no1 | inconclusive: 220% |  |
| C=CC[n+]1c(-c2ccccc2)csc1NC(C)(C)C | inactive: 3.39% |  |
| COc1ccc(/C(N)=N/OC(=O)CCc2ccccc2)cc1 | inconclusive: 15.4% |  |
| CCn1c2ccccc2c2cc(/C=N/n3cnnc3)ccc21 |  | inconclusive: 15.8 µM [falling, partial curve, poor fit] |
| CCOc1ccccc1NC(=O)Cn1c(=O)n(-c2ccccc2)c(=O)c2oc3ccccc3c21 | inactive: -1.5% |  |
| C/C(=C\C(=O)C(F)(F)F)Nc1ccc(C)cc1 | inconclusive: 0.609% |  |
| Fc1cccc(C2NN=C(c3ccccc3)S2)c1 (configuration not stated) | inactive: -18.7% |  |
| Cc1cc(C)nc(NC(=O)c2c(-c3c(Cl)cccc3Cl)noc2C)n1 | inactive: -1.89% |  |
| CCOc1ccc(/C=N/NC(=O)c2nnn(-c3nonc3N)c2CN(C)C2CCCCC2)cc1 | inconclusive: -2.59% |  |
| CCOc1ccccc1N1CCN(C(=O)c2cccc(-c3ccc(O)cc3)c2)CC1 | inconclusive: -8.34% |  |

2 entries picked at random from the list so far, as already listed:

| Compound | activity change, negative = inhibition | Potency |
| --- | --- | --- |
| C/C(=C\C(=O)C(F)(F)F)Nc1ccc(C)cc1 | inconclusive: 0.609% |  |
| CCn1c2ccccc2c2cc(/C=N/n3cnnc3)ccc21 |  | inconclusive: 15.8 µM [falling, partial curve, poor fit] |

(listing goes on)

| Compound | activity change, negative = inhibition | Potency |
| --- | --- | --- |
| CC1CC(C)CN(CCC(=O)Nc2cccc(Cl)c2)C1 (configuration not stated) | inconclusive: -11.4% |  |
| Cc1ccc2nc(-c3ccccc3)cc(C(=O)Nc3cccnc3)c2c1 | inactive: 0.324% |  |
| Cc1ccc(-c2nc(C3CCN(S(=O)(=O)c4ccc(C(F)(F)F)cc4)CC3)no2)cc1 | inactive: 2.18% |  |
| Cc1ccc(N(CC(=O)NC2CCCCC2)C(=O)CCCC(=O)Nc2ccccn2)cc1 |  | inconclusive: 17.8 µM [falling, partial curve] |
| Cc1nc(C)c(C(=O)OCC(=O)N2CCN(c3ccccc3)CC2)s1 | inconclusive: -16.8% |  |
| O=C(Nc1ccc(OC(=O)c2ccccc2)c(-c2nc3ccccc3s2)c1)c1ccccc1 | inactive: -17.2% |  |
| COc1ccc2nc(NCCO)[nH]c2c1 | inconclusive: -1.32% |  |
| CCN(CC)CCN(Cc1cc2cc(C)ccc2[nH]c1=O)C(=S)NCc1ccco1 |  | inconclusive: 25.9 µM [falling, single point] |
| O=C(Nc1ccccc1C(=O)Nc1ccccn1)c1ccccc1F | inconclusive: 2.29% |  |
| CC1CCCN(CCOCCOc2ccc(Br)cc2Cl)C1 (configuration not stated) | inactive: 1.28% |  |
| C=C1C2(C(=O)NCc3ccco3)CCC(C2)C1(C)C (configuration not stated) | inconclusive: 0.888% |  |
| C=CCN1c2ccccc2[C@]23C[C@@H](C(=O)OC)N(C(=O)c4cc(C)oc4C)C2=NC(C(=O)OC)=C(C(=O)OC)[C@H]13 | inconclusive: 2.15% |  |
| COc1ccccc1N1CCN(C(=O)c2ccc3[nH]c(C)c(C)c3c2)CC1 |  | inconclusive: 12.6 µM [cytotoxic, partial curve] |
| O=C(NC1CCCCC1)N(CCO)Cc1cc2cc3c(cc2[nH]c1=O)OCCO3 |  | inconclusive: 14.6 µM [falling, single point] |
| O=C(CSc1n[nH]c(-c2ccccc2O)n1)N1CCOCC1 | inconclusive: -28.1% |  |
| CCN(CC(=O)Nc1ccccc1Br)C1CCCCC1 | inconclusive: -29.2% |  |
| Cc1ccc(Oc2ccccc2/C=N/O)cc1 | inconclusive: 4.39% |  |
| Cc1nc(NC(=O)c2ccc([N+](=O)[O-])cc2Cl)sc1C(=O)N(C)C | inconclusive: -14.4% |  |
| CCOC(=O)C(=CNc1ccccc1Cl)C(=O)OCC | inconclusive: -8.15% |  |
| Cc1ccc(CN2CCN(Cc3cc(=O)c4ccccc4[nH]3)CC2CCO)o1 (configuration not stated) | inconclusive: 9.42% |  |
| CC(=O)c1cccc(NC(=O)C2COc3ccccc3O2)c1 (configuration not stated) | inconclusive: 0.41% |  |

| Compound | activity change, negative = inhibition | Potency |
| --- | --- | --- |
| COCc1ccc(CN2CCCC(CCC(=O)NCc3cccc(OC)c3)C2)o1 (configuration not stated) | inconclusive: 7.31% |  |
| CCOc1ncccc1C(=O)Nc1ccc2c(c1)OCO2 | inconclusive: 12.4% |  |
| COc1ccc(C)cc1NC(=O)c1ccc(NS(=O)(=O)c2cccc3cccnc23)cc1 | inconclusive: 1.85% |  |
| Clc1ccc(-c2nnc(C34CC5CC(CC(C5)C3)C4)o2)cn1 |  | inconclusive: 1.46 µM [falling, full curve, poor fit] |
| O=C(CSc1nccc2ccccc12)N1CCN(c2ccccn2)CC1 | inconclusive: -8.3% |  |
| O=C(NCCOc1ccccc1)c1ccccc1[N+](=O)[O-] | inactive: -12.9% |  |
| CCCNC(=O)C(=O)Nc1ccc(N(C)C)cc1 |  | inconclusive: 6.51 µM [falling, single point] |
| COc1ccc(C(=O)Nc2cc(Cl)ccc2C(=O)O)cc1 |  | inconclusive: 28.2 µM [falling, partial curve] |
| CN(C(=O)CCl)C1CCCc2ccccc21 (configuration not stated) |  | inconclusive: 25.1 µM [falling, single point] |
| Cc1ccccc1NC(=O)Nc1ccccc1Br |  | inconclusive: 5.01 µM [falling, full curve] |
| CCOC(=O)C(C)(C)N(Cc1ccc(C)cc1)S(=O)(=O)c1ccc(Cl)c([N+](=O)[O-])c1 | inconclusive: -7.36% |  |
| NC(=O)COc1ccccc1 | inactive: -1.2% |  |
| O=C(Cc1ccc(Br)cc1)N1CCN(c2ccccc2)CC1 | inconclusive: 9.39% |  |
| c1ccc(-c2csc(N3CCc4ccccc4C3)n2)cc1 | inconclusive: 2.3% |  |
| Oc1ccc(N=Nc2c(O)ccc3ccccc23)cc1 | inconclusive: 14.8% |  |
| CCC(C)N(C)Cc1cccc(C2(O)CCN(S(=O)(=O)c3ccc(F)c(C)c3)CC2)c1 (configuration not stated) | inactive: 0.306% |  |
| Cc1ccc(N(C(=O)C(F)(F)F)C(C(=O)NC2CCCCC2)c2cccs2)cc1C (configuration not stated) | inactive: -1.12% |  |
| O=C(Nc1ccc(Oc2cccc(C(F)(F)F)c2)nc1)c1ccccc1 | inactive: 5.34% |  |
| O=C(C1CCC1)N1CCc2cc(S(=O)(=O)Nc3ccc4c(c3)OCCO4)ccc21 | inactive: -5.37% |  |
| CC(C)(C)C(=O)Nc1nc(=S)ss1 |  | inconclusive: 2.31 µM [rising, full curve, poor fit] |
| O=[N+]([O-])c1ccc(-c2ccc(/C=N/c3c(-c4ccco4)nc4ccccn34)o2)cc1 |  | inconclusive: 35.5 µM [rising, partial curve, poor fit] |

| Compound | activity change, negative = inhibition | Potency |
| --- | --- | --- |
| CCOc1ccc(OCC)c(NC(=O)C2CCN(S(=O)(=O)c3cnc[nH]3)CC2)c1 | inconclusive: 5.79% |  |
| CCN(CC)C(=O)CSc1nc(-c2ccccc2)cc(=O)[nH]1 |  | inconclusive: 35.5 µM [falling, single point] |
| CCC(C)(C)n1nnnc1C(c1cc2cc(C)ccc2[nH]c1=O)N1CCCc2ccccc21 (configuration not stated) | inconclusive: -26.6% |  |
| Cc1ccccc1CSCc1ccc(C(=O)NCCCN2CCOCC2)o1 | inactive: -0.578% |  |
| O=C(COC(=O)c1ccccc1O)Nc1cccnc1Cl |  | inconclusive: 14.6 µM [falling, partial curve] |
| COc1cc(NC(=O)COc2ccc(Cl)cc2)ccc1-c1cc2ccccc2oc1=O | inactive: -9.9% |  |
| CCOc1ccccc1NC(=O)C(Sc1nnc2ccccn12)c1ccccc1 (configuration not stated) |  | inconclusive: 23.1 µM [falling, single point] |
| CCOc1cc(OCC)cc(C(=O)NC(=S)Nc2cccc(C(F)(F)F)c2)c1 | inactive: 9.9% |  |
| CS(=O)(=O)Nc1ccc(OCc2ccccc2)cc1 |  | inconclusive: 3.66 µM [rising, partial curve, poor fit] |
| O=C(CSc1ccccn1)Nc1nc2ccccc2s1 |  | inconclusive: 23.1 µM [falling, single point] |
| CCc1ccc(O)c(-c2cc(C(=O)Nc3cccnc3)[nH]n2)c1 |  | inconclusive: 12.6 µM [falling, partial curve] |
| CCN(CC(=O)Nc1ccc(OC)cc1)C(=O)CN1C(=O)NC(C)(c2ccc3ccccc3c2)C1=O (configuration not stated) | inconclusive: 0.112% |  |
| CCCCC(=O)Nc1ccc(C(=O)Nc2ccc(S(=O)(=O)Nc3ccc(C)cc3)cc2)cc1 | inconclusive: 17.2% |  |
| CN1C(=O)C(Cl)(Cl)C(=O)c2ccccc21 | inconclusive: -10.7% |  |
| CCOC(=O)Nc1ccc2c(c1)N(C(=O)CCN(C)C)c1ccccc1S2 |  | inconclusive: 35.5 µM [falling, single point] |
| CCCSc1nc(C)c(C(C)=O)cc1C#N |  | active: 18.4 µM |
| O=C(NCc1ccco1)c1nc2c(nnn2Cc2ccccc2Cl)c(=O)[nH]1 |  | inconclusive: 32.6 µM [rising, single point] |
| Clc1ccc(CCNc2nc3ccccc3s2)cc1 | inconclusive: 13.8% |  |
| Cn1c(=O)c2c(ncn2CCOc2cccc(Br)c2)n(C)c1=O | inconclusive: -11.7% |  |

Entries from the list above that have fluorine, in the order listed:

| Compound | activity change, negative = inhibition | Potency |
| --- | --- | --- |
| COC(=O)c1sccc1NC(=O)Nc1ccccc1F |  | inconclusive: 2 µM [falling, full curve, poor fit] |
| O=C(/C=C/c1cccc(Br)c1)N1CCN(c2cccc(C(F)(F)F)c2)CC1 | inconclusive: -2.93% |  |
| FC(F)(F)c1cccc(Cc2noc(CN3CCCC(OCc4ccccn4)C3)n2)c1 (configuration not stated) | inconclusive: -0.263% |  |
| COc1ccccc1-c1cc(C(=O)Nc2ccc(F)cc2F)no1 | inconclusive: 220% |  |
| C/C(=C\C(=O)C(F)(F)F)Nc1ccc(C)cc1 | inconclusive: 0.609% |  |
| Fc1cccc(C2NN=C(c3ccccc3)S2)c1 (configuration not stated) | inactive: -18.7% |  |
| Cc1ccc(-c2nc(C3CCN(S(=O)(=O)c4ccc(C(F)(F)F)cc4)CC3)no2)cc1 | inactive: 2.18% |  |
| O=C(Nc1ccccc1C(=O)Nc1ccccn1)c1ccccc1F | inconclusive: 2.29% |  |
| CCC(C)N(C)Cc1cccc(C2(O)CCN(S(=O)(=O)c3ccc(F)c(C)c3)CC2)c1 (configuration not stated) | inactive: 0.306% |  |
| Cc1ccc(N(C(=O)C(F)(F)F)C(C(=O)NC2CCCCC2)c2cccs2)cc1C (configuration not stated) | inactive: -1.12% |  |
| O=C(Nc1ccc(Oc2cccc(C(F)(F)F)c2)nc1)c1ccccc1 | inactive: 5.34% |  |
| CCOc1cc(OCC)cc(C(=O)NC(=S)Nc2cccc(C(F)(F)F)c2)c1 | inactive: 9.9% |  |
